The experiment deals with T1, GST-TRIB2-Full (UniProt Q92519).
T1 sequence: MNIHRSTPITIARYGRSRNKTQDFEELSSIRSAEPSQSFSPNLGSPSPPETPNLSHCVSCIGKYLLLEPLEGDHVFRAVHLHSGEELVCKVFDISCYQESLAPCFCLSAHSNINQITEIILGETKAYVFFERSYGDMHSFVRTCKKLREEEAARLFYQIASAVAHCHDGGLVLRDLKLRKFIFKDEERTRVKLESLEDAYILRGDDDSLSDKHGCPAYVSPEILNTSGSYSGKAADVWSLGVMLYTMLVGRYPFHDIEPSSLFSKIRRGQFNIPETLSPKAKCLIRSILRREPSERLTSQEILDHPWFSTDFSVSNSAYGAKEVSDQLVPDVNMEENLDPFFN
Briefly: affinity purification with mass spectrometry; GST-TRIB2-full incubated with the lysis of lung cancer tissues; pulled-down proteins stained with Coomassie and analysed by Q Exactive LC-MS/MS; only the target purified.

Sequences of proteins named here, by UniProt entry; tags and fusion partners are left off.
UniProt P14618: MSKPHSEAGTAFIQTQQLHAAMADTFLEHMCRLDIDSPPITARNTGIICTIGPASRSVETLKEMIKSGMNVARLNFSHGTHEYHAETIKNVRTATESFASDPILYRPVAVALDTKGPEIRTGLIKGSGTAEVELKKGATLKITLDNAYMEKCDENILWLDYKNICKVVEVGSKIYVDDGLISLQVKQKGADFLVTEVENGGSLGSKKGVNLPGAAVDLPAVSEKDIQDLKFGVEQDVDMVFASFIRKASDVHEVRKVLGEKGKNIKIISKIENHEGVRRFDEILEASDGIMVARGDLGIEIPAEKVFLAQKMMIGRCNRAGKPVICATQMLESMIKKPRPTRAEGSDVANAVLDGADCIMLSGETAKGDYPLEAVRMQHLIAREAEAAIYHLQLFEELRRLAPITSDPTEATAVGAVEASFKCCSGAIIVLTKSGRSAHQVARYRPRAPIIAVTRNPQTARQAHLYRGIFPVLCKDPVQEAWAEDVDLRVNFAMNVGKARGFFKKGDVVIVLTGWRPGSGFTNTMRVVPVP

No constants are given. Whether binding was seen depends on the method and setting. Binding seen in cells or lysates may run through a third protein. A yes stands for co-enrichment or nearness to the bait. Other partners may have been found. Where a sequence is shown, tags or fusion partners need not be part of it.

This is an account of results in article PMC9256704.

For “PKM2 (M2 isoform of pyruvate kinase), endogenous (from UniProt P14618 1-531)”, the binding entry is recorded as “binds”.
